# ± gives the standard deviation. Only a part is listed here, and it is no random draw. The uncertainty is large for many entries.
# Test system: EfPiwi piRISC loaded with piRNA #1 (26 nt)
# Assay: pre-steady-state target cleavage rate (min^-1); guide: piRNA #1 5'p-UGAGGUAGUAGGUUGUAUAGUAUCCA; MIWI and MILI are mouse PIWI proteins and EfPiwi is from a freshwater sponge; tags in brackets are library labels; higher = faster piRNA-guided slicing of the target
# Settings: auxiliary factor: 500 nM Ephydatia muelleri Gtsf1
# Procedure, shortened: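 With or without 500 nM GTSF1 partner protein, 1 nM active affinity-purified piRISC carrying one synthetic guide was mixed with 0.1 nM transcribed, DNA-blocked target RNA library in HEPES–potassium acetate buffer at 33 °C for 0–8 or 0–960 min. Uncleaved targets were sequenced and normalised to depth and to weakly complementary targets, three trials were pooled, and k3 was capped at 0.0001 min^-1. The pre-steady-state cleavage rate came from a burst-and-steady-state fit.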
row,Sequence,pre-steady-state target cleavage rate
1,GGAGAGGAUUCUAUACAACCUACUACGUCA,0.00169 ± 0.0031
2,GGAGACCUAACUAUAGAACGUACUACCUCA,0.000345 ± 0.0098
3,GGAGACCUUACUUAUACAACCUACUACCUCA,0.00736 ± 0.0041
4,GGAGACCUAUGUAUACACCCUACUACCUCA,0.00271 ± 0.005
5,GGAGUGGAUACUUUUCAACCUACUACCUCA,0.00404 ± 0.0046
6,GGAGUGGAUACUUUACAACCUACUACCACA,0.0011 ± 0.0026
7,GGAGACCUAACUAUACAACCUACGUACCUCA,0.00159 ± 0.0055
8,GGAGACGAUACUAUUCAACCAACUACCUCA,0.00444 ± 0.002
9,GGAGUGGAUACUAUACUUGCUACUACCUCA,0.00165 ± 0.0042
10,GGAGACCUUACAUUACAACCUACUACCUCA,0.00334 ± 0.0033
11,GGAGACCUAUGAUAUGUUCCUACUACCACA,0.000129 ± 0.014
12,GGAGACCUAUGAUAUGUUCCUACGACCUCA,0.000103 ± 0.023
13,GGAGAGGUUAGUAUACAACCUACUACCUCA,0.00354 ± 0.0036
14,GGAGACCUUACAAUACAACCUACUACCACA,0.00133 ± 0.0099
15,GGAGACCUAUCUAUACAACGUACAACCUCA,0.00155 ± 0.0056
16,GGAGUGGAUACUAUACAACCUACUACCAUCA,0.00588 ± 0.0026
17,GGAGAGGAAUCUAUACAACCUACUACCUCA,0.00943 ± 0.0056
18,GGAGAGGAUACUAUUCUACCUACUACCUCA,0.00283 ± 0.0038
19,GGAGUGGAUACUUUACAACCUUCUACCUCA,0.00301 ± 0.0026
20,GGAGACGAUAGUAUACAACGUACUACCUCA,0.00208 ± 0.0029

# Reformatted: entries from further up.
row | Sequence | pre-steady-state target cleavage rate
13 | GGAGAGGUUAGUAUACAACCUACUACCUCA | 0.00354 ± 0.0036
14 | GGAGACCUUACAAUACAACCUACUACCACA | 0.00133 ± 0.0099

# Following part

row,Sequence,pre-steady-state target cleavage rate
1,GGAGUGGAUACUAUACAACCUACAUCCUCA,0.00282 ± 0.0012
2,GGAGACCUAUCUUAACAACCUACUACCUCA,0.0035 ± 0.0043
3,GGAGACCUAUGUAUACAACCUACUUCCUCA,0.000581 ± 0.0051
4,GGAGUGGAUACUAUACAACCUACUACCCUCA,0.00587 ± 0.002
5,GGAGAGGAAACUAUACAACCUACUACCUCA,0.00596 ± 0.0036
6,GGAGACGUUACUAUACAACCUACUACGUCA,0.00396 ± 0.0018
7,GGAGACCAUACUAUACAACAUACUACCUCA,0.00326 ± 0.0021
8,GGAGACCUAUCUAUAUAACCUACUACCUCA,0.00312 ± 0.0033
9,GGAGACCAUAGUAUAGAACCUACUACCUCA,0.00127 ± 0.0043
10,GGAGACCUUACUAUACAACCUACUACGUCA,0.00584 ± 0.0027
11,GGAGUGGAUUCUAUACAACCAACUACCUCA,0.00252 ± 0.0027
12,GGAGACCUUAGUAUACAACCUACAACCUCA,0.00245 ± 0.0047
13,GGAGACCAUACUAUACAACGUACUACCUCA,0.00482 ± 0.0015
14,GGAGUGGAUACUAUUCAACCUACAACCUCA,0.00255 ± 0.0022
15,GGAGACCUAUCAAUACAAGCUACUACCUCA,0.00234 ± 0.0049
16,GGAGUGGAUACUAUACAAGCUAGUACCUCA,0.00287 ± 0.0014
17,GGAGACCUAUGAUAUGUUGGUAGAUCCUCA,0.000338 ± 0.012
18,GGAGUGGAUACUAUACAACCUACUACCUCG [g2:g26:cont:t1G],0.0718 ± 0.025
19,GGAGACCAUACUGAUACAACCUACUACCUCA,0.0368 ± 0.013
20,GGAGACCAUACUAUACAACCUACUACCUCCA,0.0119 ± 0.0039

# From the supplement of paper PMC10338343
